These are yes or no findings as the source states them, for the method shown. In cells and extracts the contact can be indirect. These calls come from enrichment with a bait or labelling near it, and not all partners need be listed. No binding means not detected with the bait.
B1: Synechocystis FtsZ, endogenous (protein, UniProt P73456 1-430)
chain: MTLNNDLPLNNIGFTGSGLNDGTEGLDDLFSSSIVDNEPLEALVETPTFASPSPNLKRDQIVPSNIAKIKVIGVGGGGCNAVNRMIASGVTGIDFWAINTDSQALTNTNAPDCIQIGQKLTRGLGAGGNPAIGQKAAEESRDEIARSLEGTDLVFITAGMGGGTGTGAAPIVAEVAKEMGCLTVGIVTRPFTFEGRRRAKQAEEGINALQSRVDTLIVIPNNQLLSVIPAETPLQEAFRVADDILRQGVQGISDIIIIPGLVNVDFADVRAVMADAGSALMGIGVGSGKSRAKEAATAAISSPLLESSIQGAKGVVFNVTGGTDLTLHEVNVAAEIIYEVVDADANIIFGAVIDDRLQGEMRITVIATGFNGEKEKPQAKTSSKPVLSGPPAGVETVPSTTTPEDPLGEIPMAPELDIPDFLQKRRFPRR
B2: Synechocystis SepF, endogenous (protein, UniProt P73376 1-186)
chain: MILTKLKDFVGISEHDEYEEDYDEEMEFPQSVASQPPAEEVAPPPRISREPLSLNNETSIGTGVRNNVIGMPGINNSVAEVVVVEPHSFDEMPQVIQTLRERKSVVLNLNVMDPEEAQRAVDFVAGGTFAMDGHQERIGESIFLFTPNCVKVSSLAGRSQESNETSSSVSSDNFPTWGYETSRLAQ

Molecular target: Synechocystis CurT-6xHis (Synechocystis sp. PCC 6803)
Test: affinity purification with mass spectrometry; Ni-NTA pulldown of CurT-6xHis from Nonidet P40-solubilized Synechocystis whole-cell extract; washes with binding buffer and 30 mM imidazole, elution with 200 and 500 mM imidazole; compared with WT, n = 4

Binder | binding
B1 | binds
B2 | no binding
